# Record: PubChem BioAssay AID1159618 (Peter MacCallum Cancer Centre, 2016)
# Screen: 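Contrast migration regulators of blood versus lymphatic endothelial cells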 (follow-up of hits)
# System: human HMBEC blood microvascular and HDLEC dermal lymphatic endothelial cells
# Reagent: siRNA pool against human genes, 40 nM
# Read-out: 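Automated imaging of scratched monolayers; area filled by migrating cells relative to the mean of mock-transfected wells, averaged over two replicates; nuclei also counted per well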
# Scale: migration vs mock, HMBEC and migration vs mock, HDLEC: higher = more migration into the scratch; nuclei count, HMBEC and nuclei count, HDLEC: higher = more cells
# Hit rule: 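Called impaired when migration drops below 0.65 of mock in HMBEC, HDLEC or both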
# Meaning of the calls: active = migration impaired; inactive = no change
# The whole screen tested 153 reagents; below is a random part of them. Over the whole deposit, 111 (73%) are marked active. 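Migration not corrected for cell number; some knock-downs also lowered nuclei counts, so reduced closure may partly reflect fewer cells.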 A number with no mark means an inactive call. Not stated in the record: the time to read-out.
gene symbol,cell type with impaired migration,"migration vs mock, HMBEC","migration vs mock, HDLEC","nuclei count, HMBEC","nuclei count, HDLEC"
PLPPR2 (GeneID 64748),no change in either cell type,0.691,0.652,3923,5628
LPL (GeneID 4023),impaired only in lymphatic endothelial cells (active),0.878,0.595,4228,6017
CARD10 (GeneID 29775),impaired in both blood and lymphatic cells (active),0.62,0.552,3602,5323
HOXC5 (GeneID 3222),impaired in both blood and lymphatic cells (active),0.319,-0.164,3029,4059
CHST8 (GeneID 64377),impaired in both blood and lymphatic cells (active),0.646,0.65,3334,5791
PKN2 (GeneID 5586),impaired only in blood endothelial cells (active),0.581,0.73,3478,5688
SF3B1 (GeneID 23451),impaired in both blood and lymphatic cells (active),0.302,0.278,3710,5108
PIK3AP1 (GeneID 118788),impaired in both blood and lymphatic cells (active),0.526,0.544,3064,4494
GCGR (GeneID 2642),impaired in both blood and lymphatic cells (active),0.335,0.368,2834,5071
PLCG1 (GeneID 5335),impaired in both blood and lymphatic cells (active),0.547,0.59,3564,5930
ITFG2 (GeneID 55846),impaired only in blood endothelial cells (active),0.581,0.669,3380,5301
JHY (GeneID 79864),no change in either cell type,0.712,0.859,3462,6250
TMIGD2 (GeneID 126259),no change in either cell type,1.04,0.858,4474,5957
P2RX2 (GeneID 22953),impaired only in lymphatic endothelial cells (active),0.691,0.371,4400,5273
SYNGAP1 (GeneID 8831),impaired in both blood and lymphatic cells (active),0.566,0.496,4176,5795
PPP6R1 (GeneID 22870),no change in either cell type,0.687,0.714,2610,5099
NXF1 (GeneID 10482),impaired in both blood and lymphatic cells (active),0.542,0.589,3974,5273
GDF3 (GeneID 9573),impaired in both blood and lymphatic cells (active),0.103,0.163,3121,5537
NDUFA7 (GeneID 4701),impaired only in lymphatic endothelial cells (active),0.651,0.63,4133,5940
OR10H4 (GeneID 126541),impaired only in lymphatic endothelial cells (active),0.764,0.64,4368,6169
BTK (GeneID 695),impaired only in lymphatic endothelial cells (active),0.884,0.572,4177,5909
C5AR1 (GeneID 728),no change in either cell type,0.674,0.701,4236,6489
PTH2 (GeneID 113091),impaired in both blood and lymphatic cells (active),0.409,0.368,3900,5415
LGALS1 (GeneID 3956),impaired in both blood and lymphatic cells (active),0.451,0.25,2759,4287
PI4KB (GeneID 5298),impaired in both blood and lymphatic cells (active),0.553,0.405,3572,5332
GPR84 (GeneID 53831),impaired in both blood and lymphatic cells (active),0.0388,0.0314,2866,5140
STK38 (GeneID 11329),impaired in both blood and lymphatic cells (active),0.463,0.563,3252,5320
PRR21 (GeneID 643905),impaired only in lymphatic endothelial cells (active),0.856,0.613,4647,6470
RELT (GeneID 84957),no change in either cell type,0.993,0.807,4413,6019
SRMS (GeneID 6725),impaired only in blood endothelial cells (active),0.643,0.785,3282,5576
FBXO7 (GeneID 25793),impaired only in blood endothelial cells (active),0.513,0.683,2866,5087
PLPP3 (GeneID 8613),impaired in both blood and lymphatic cells (active),0.631,0.531,4859,7036
HPDL (GeneID 84842),impaired in both blood and lymphatic cells (active),0.469,0.321,4166,6518
PSEN2 (GeneID 5664),impaired in both blood and lymphatic cells (active),0.569,0.504,3477,4772
ABCA2 (GeneID 20),impaired in both blood and lymphatic cells (active),0.556,0.611,3752,5257
FCRL2 (GeneID 79368),impaired in both blood and lymphatic cells (active),0.594,0.51,4603,6377
SCN1B (GeneID 6324),impaired only in lymphatic endothelial cells (active),0.691,0.578,3186,4372
NUDT2 (GeneID 318),no change in either cell type,0.766,0.925,3828,5934
STK36 (GeneID 27148),impaired only in blood endothelial cells (active),0.604,0.898,3677,5676
KRT80 (GeneID 144501),impaired only in lymphatic endothelial cells (active),0.702,0.584,4365,5942
CBR1 (GeneID 873),impaired only in blood endothelial cells (active),0.307,0.696,2704,5202
COPB2 (GeneID 9276),impaired in both blood and lymphatic cells (active),0.48,0.581,3260,5461
BDH2 (GeneID 56898),no change in either cell type,0.86,0.809,3665,5847
PMVK (GeneID 10654),impaired in both blood and lymphatic cells (active),0.527,0.623,2923,5284
LIMK1 (GeneID 3984),impaired only in lymphatic endothelial cells (active),0.743,0.62,4564,6234
MPP3 (GeneID 4356),no change in either cell type,0.747,0.82,3320,4896
BNIP1 (GeneID 662),no change in either cell type,0.672,0.933,3779,5753
HS3ST1 (GeneID 9957),no change in either cell type,0.694,0.762,4268,6441
MOB3A (GeneID 126308),impaired in both blood and lymphatic cells (active),0.284,0.264,3349,4565
MICAL2 (GeneID 9645),impaired in both blood and lymphatic cells (active),0.397,0.596,3196,5954

Targets above whose target name starts with S or s:
gene symbol,cell type with impaired migration,"migration vs mock, HMBEC","migration vs mock, HDLEC","nuclei count, HMBEC","nuclei count, HDLEC"
SF3B1 (GeneID 23451),impaired in both blood and lymphatic cells (active),0.302,0.278,3710,5108
SYNGAP1 (GeneID 8831),impaired in both blood and lymphatic cells (active),0.566,0.496,4176,5795
STK38 (GeneID 11329),impaired in both blood and lymphatic cells (active),0.463,0.563,3252,5320
SRMS (GeneID 6725),impaired only in blood endothelial cells (active),0.643,0.785,3282,5576
SCN1B (GeneID 6324),impaired only in lymphatic endothelial cells (active),0.691,0.578,3186,4372
STK36 (GeneID 27148),impaired only in blood endothelial cells (active),0.604,0.898,3677,5676
